Data as given in patent publication US20250066490A1, “ANTI-CD70 ANTIBODIES, CONJUGATES THEREOF AND METHODS OF USING THE SAME” (ProfoundBio US Co., priority 2021, published 2025).

Target: cynomolgus CD70 recombinant protein (cynomolgus)
Experiment: ELISA, coated cynomolgus CD70, IgG titrated

B1: 1F6 (Vorsetuzumab), reference antibody, full IgG (antibody, V domains shown)
VH: QVQLVQSGAEVKKPGASVKVSCKASGYTFTNYGMNWVRQAPGQGLKWMGWINTYTGEPTYADAFKGRVTMTRDTSISTAYMELSRLRSDDTAVYYCARDYGDYGMDYWGQGTTVTVSS
VL: DIVMTQSPDSLAVSLGERATINCRASKSVSTSGYSFMHWYQQKPGQPPKLLIYLASNLESGVPDRFSGSGSGTDFTLTISSLQAEDVAVYYCQHSREVPWTFGQGTKVEIK
binding: binds

These are yes or no findings as the source states them, for the method shown. A result given as binding can be weak or reduced; the word gives no strength.
